Source: PMC7475184 (Heliyon, 2020)
In brackets after ≈: the same amount, converted by molar mass.

Tested on: MCF7 (breast) cells
Assay: Cytotoxic activity, Cell Titer 96 proliferation kit
Type: cell-based
Conditions: Homo sapiens, MCF7, read-out: IC50, MCF7
Procedure, shortened: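 Cells grown in DMEM with 10% fetal bovine serum and 2 mM glutamine at 37 °C under 5% CO2. Test compounds at 100, 10, 1, 0.1 and 0.01 μg/mL for a dose-response curve. Viability read with a Cell Titer 96 aqueous kit by absorbance at 450 nm. Paclitaxel reference. Triplicates in three independent experiments; IC50 by regression analysis.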

SMILES: CC(=O)O[C@H]1C(=O)[C@@]2(C)[C@H]([C@H](OC(=O)c3ccccc3)[C@]3(O)C[C@H](OC(=O)[C@H](O)[C@@H](NC(=O)c4ccccc4)c4ccccc4)C(C)=C1C3(C)C)[C@]1(OC(C)=O)CO[C@@H]1C[C@@H]2O [Paclitaxel, reference compound]
- IC50: 4.27 ng/mL (≈ 5 nM)
